The list shows a part of the results. Shown are side measurements of this screen, not its main read-out; they come without a call. Most of these compounds were active or inconclusive in the main read-out, so they are no random draw.
assay: inhibitors of insulin promoter-driven GFP, primary screen, imaging, TRM-6 cells (human fetal islet line), eGFP reporter, cell count (AID 1273;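 further: cells exposed to compound for 48 h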); conditions: measured here: cell count, toxicity, at 2 µM, reporter expression induced with tamoxifen

**Q.** Which normalized cell count does the source give for `COc1ccc(-c2nc(C#N)c(N3CCC(C(N)=O)CC3)o2)cc1OC` here?
**A.** Its normalized cell count is 95.6%.

**Q.** Which normalized cell count does the source give for `CC(C)CC(c1nnnn1CCc1ccccc1)N1CCC(C(N)=O)CC1` (centres undefined) here?
**A.** Its normalized cell count is 41.1%.

**Q.** With `Cc1cccc(NC(=S)NC(=O)C(c2ccccc2)c2ccccc2)n1` as the compound, how does the normalized cell count read?
**A.** The normalized cell count was 29.4%.

**Q.** For `N#C/C(=C/c1ccc(N2CCOCC2)c([N+](=O)[O-])c1)C(N)=O`, which normalized cell count is on record?
**A.** Its normalized cell count is 88.8%.

**Q.** With `COc1ccc(OC)c(N/C(C)=C/C(=O)c2ccc(C)o2)c1` as the compound, how does the normalized cell count read?
**A.** Its normalized cell count is 84.8%.

**Q.** With `Cc1cc(=O)[nH]c2c1c(C)nn2-c1ccccc1` as the compound, how does the normalized cell count read?
**A.** Its normalized cell count is 79.8%.

**Q.** For `c1ccc(CNc2nc(-c3cccs3)nc3ccccc23)nc1`, which normalized cell count is on record?
**A.** The normalized cell count was 113%.

**Q.** Which normalized cell count does the source give for `Cc1cccc(Nc2nc(N)nc(CN3CCC(C)CC3)n2)c1C` here?
**A.** The normalized cell count was 15.9%.

**Q.** With `CCCCCn1nc(C)c(/C=N\NC(=O)c2cc(C)oc2C)c1C` as the compound, how does the normalized cell count read?
**A.** The normalized cell count was 134%.

**Q.** For `O=C(COC(=O)c1cnccn1)c1ccc2c(c1)CCCC2`, which normalized cell count is on record?
**A.** The normalized cell count was 126%.

**Q.** For `Cc1ccc(S(=O)(=O)N2CCCC(C(=O)Nc3ccc(NC(=O)c4ccccn4)cc3)C2)cc1` (centres undefined), which normalized cell count is on record?
**A.** The normalized cell count was 111%.

**Q.** Which normalized cell count does the source give for `CCCn1nnc(NC(=O)COc2ccc(C3CCCCC3)cc2)n1` here?
**A.** The normalized cell count was 14.3%.

**Q.** For `CCN(CC)c1nc2ccccc2[nH]1`, which normalized cell count is on record?
**A.** Its normalized cell count is 234%.

**Q.** For `COc1ccc(-c2c(C#N)c(C)nc3c2C(=O)c2ccccc2-3)cc1`, which normalized cell count is on record?
**A.** The normalized cell count was 80%.

**Q.** With `O=C(NCCCN1CCN(c2ccccc2F)CC1)Nc1ccccc1[N+](=O)[O-]` as the compound, how does the normalized cell count read?
**A.** Its normalized cell count is 94.6%.

**Q.** For `CCOc1ccc(/C=N/Nc2ccc(C(F)(F)F)cc2[N+](=O)[O-])cc1O`, which normalized cell count is on record?
**A.** Its normalized cell count is 123%.

**Q.** With `COc1ccc(C(=O)C(CN2CCOCC2)c2ccccc2)cc1F` (centres undefined) as the compound, how does the normalized cell count read?
**A.** Its normalized cell count is 50.3%.

**Q.** Which normalized cell count does the source give for `Cc1nn(C)c(C)c1NC(=O)c1ccnn1C` here?
**A.** Its normalized cell count is 67.6%.

**Q.** Which normalized cell count does the source give for `Cn1nccc1C(=O)N1CCc2ccccc21` here?
**A.** Its normalized cell count is 135%.

**Q.** With `CC(=O)N(c1ccc(Cl)cc1)c1c[nH]c2ccccc12` as the compound, how does the normalized cell count read?
**A.** Its normalized cell count is 162%.

**Q.** For `CCOP(=O)(C1=C(O)C(=O)C(C(C)(C)C)=CC1=O)c1ccccc1` (centres undefined), which normalized cell count is on record?
**A.** The normalized cell count was 103%.

**Q.** For `COc1oc(-c2ccc(Cl)cc2)nc1C(F)(F)F`, which normalized cell count is on record?
**A.** The normalized cell count was 103%.

**Q.** For `CCCC(=O)Nc1nnc(SCC)s1`, which normalized cell count is on record?
**A.** Its normalized cell count is 61.5%.

**Q.** With `Cn1cnnc1SCCn1c(N2CCCCC2)nc2c1c(=O)[nH]c(=O)n2C` as the compound, how does the normalized cell count read?
**A.** Its normalized cell count is 93.8%.

**Q.** Which normalized cell count does the source give for `CC1(C)OC(=O)C(=CNn2cnc3ccccc3c2=O)C(=O)O1` here?
**A.** The normalized cell count was 78.5%.

**Q.** Which normalized cell count does the source give for `Cc1c(CNC(=O)c2cnn3c2NC(c2ccccc2)CC3C(F)(F)F)cnn1C` (centres undefined) here?
**A.** The normalized cell count was 79.5%.

**Q.** Which normalized cell count does the source give for `Cc1ccc(C(=O)c2cc3c(cc2N)OCCO3)cc1` here?
**A.** Its normalized cell count is 99.7%.

**Q.** With `Cc1cccc(-n2c(=O)[nH]c3c(C(N)=O)nc(CC(C)C)nc32)c1` as the compound, how does the normalized cell count read?
**A.** Its normalized cell count is 51.7%.

**Q.** With `O=C(COc1ccc(Br)cc1)N/N=C1\SCC(=O)N1c1ccc(F)cc1` as the compound, how does the normalized cell count read?
**A.** Its normalized cell count is 109%.

**Q.** Which normalized cell count does the source give for `COc1ccc(/C=C/C2=NN(C)C(=O)CC2)cc1` here?
**A.** Its normalized cell count is 113%.

**Q.** For `O=C(c1cc(Cl)cc(Cl)c1)N1CCOCC1`, which normalized cell count is on record?
**A.** Its normalized cell count is 91.5%.

**Q.** Which normalized cell count does the source give for `Cc1ccc(S(=O)(=O)NC(=O)c2ccc(-c3ccc(-c4ccccc4)cc3)o2)c(C)c1` here?
**A.** Its normalized cell count is 80.3%.

**Q.** With `CCOc1cc(S(=O)(=O)N2CCOCC2)ccc1F` as the compound, how does the normalized cell count read?
**A.** Its normalized cell count is 129%.

**Q.** With `CCOC(=O)c1c(C)n(C(=O)c2ccco2)c(=O)n1C(=O)c1ccco1` as the compound, how does the normalized cell count read?
**A.** The normalized cell count was 142%.

**Q.** For `CCc1ccc(NC(=O)C(C)OC(=O)c2cc(=O)[nH]c3ccc(S(=O)(=O)Nc4ccc(F)cc4)cc23)cc1` (centres undefined), which normalized cell count is on record?
**A.** The normalized cell count was 117%.

**Q.** With `CC(C)CNc1oc(-c2ccco2)nc1C#N` as the compound, how does the normalized cell count read?
**A.** The normalized cell count was 76.2%.

**Q.** With `CCOc1ccc(NC(=O)c2nn(-c3ccc(OC)cc3OC)c(=O)c3ccccc23)cc1` as the compound, how does the normalized cell count read?
**A.** The normalized cell count was 121%.

**Q.** Which normalized cell count does the source give for `CCOC(=O)CSc1nc(C)c(C(C)=O)cc1C#N` here?
**A.** Its normalized cell count is 141%.

**Q.** Which normalized cell count does the source give for `O=C(Nc1nnc(C2CC2)s1)c1ccc(Cl)c(S(=O)(=O)N2CCc3ccccc3C2)c1` here?
**A.** Its normalized cell count is 121%.

**Q.** With `CCSc1nc2ccccc2n1C(=O)Oc1ccccc1` as the compound, how does the normalized cell count read?
**A.** The normalized cell count was 110%.

**Q.** Which normalized cell count does the source give for `COc1cccc(C(=O)N2CCOCC2)c1` here?
**A.** Its normalized cell count is 81.8%.

**Q.** For `Nc1cc2c(cc1C(=O)c1ccc(Cl)cc1)OCCO2`, which normalized cell count is on record?
**A.** The normalized cell count was 144%.

**Q.** Which normalized cell count does the source give for `Cc1nccn1-c1ccc(C(F)(F)F)cc1[N+](=O)[O-]` here?
**A.** Its normalized cell count is 84.3%.

**Q.** With `O=C1CCC/C1=C/Nc1ccc(Cl)cc1` as the compound, how does the normalized cell count read?
**A.** The normalized cell count was 90.2%.

**Q.** For `CN(C)c1ccnc(SCc2ccccc2Cl)c1C#N`, which normalized cell count is on record?
**A.** The normalized cell count was 101%.

**Q.** For `CCC(CC)C(=O)OCC(=O)Nc1cc(OC)c([N+](=O)[O-])cc1C`, which normalized cell count is on record?
**A.** The normalized cell count was 122%.

**Q.** With `CCCc1nn(CCc2ccccn2)c(N)c1CC` as the compound, how does the normalized cell count read?
**A.** The normalized cell count was 127%.

**Q.** For `C[N+]1(CCC(=O)c2ccccc2)CCCCC1`, which normalized cell count is on record?
**A.** Its normalized cell count is 62.5%.

**Q.** For `CCC(C)N(CC(=O)Nc1cccc(C)c1C)C(=O)CCl` (centres undefined), which normalized cell count is on record?
**A.** Its normalized cell count is 0.72%.

**Q.** For `O=c1c2ccccc2ncn1Cc1ccc(Cl)cc1`, which normalized cell count is on record?
**A.** The normalized cell count was 162%.

**Q.** With `CC(C)(C)c1nnc(NC(=O)CN2C(=O)C3C4C=CC(C4)C3C2=O)s1` (centres undefined) as the compound, how does the normalized cell count read?
**A.** Its normalized cell count is 135%.

**Q.** With `O=C(O)CCCC(=O)Nc1ccc(N=Nc2ccccc2)cc1` as the compound, how does the normalized cell count read?
**A.** Its normalized cell count is 85.6%.

**Q.** Which normalized cell count does the source give for `Cc1ccc(NC(=O)c2ccnc(C(C)(C)C)c2)cc1` here?
**A.** Its normalized cell count is 95.2%.

**Q.** With `COc1ccc(NC(=O)N2CCN(c3cccc(C(F)(F)F)c3)CC2)cc1` as the compound, how does the normalized cell count read?
**A.** The normalized cell count was 18.6%.

**Q.** Which normalized cell count does the source give for `Cc1c(-c2cc[n+]([O-])cc2)oc2ccc(Br)cc2c1=O` here?
**A.** The normalized cell count was 83.3%.

**Q.** With `CC(C)Nc1ncnc2ccc(Br)cc12` as the compound, how does the normalized cell count read?
**A.** Its normalized cell count is 73.7%.

**Q.** With `COC(=O)c1c(-c2ccc(OC)c(OC)c2)csc1N` as the compound, how does the normalized cell count read?
**A.** Its normalized cell count is 126%.

**Q.** For `Cc1cc(NC(=O)COc2ccc(N(C)S(=O)(=O)c3ccccc3)cc2)no1`, which normalized cell count is on record?
**A.** The normalized cell count was 79.1%.

**Q.** With `CCOc1ccc(NC(=O)CCn2cccc2)cc1` as the compound, how does the normalized cell count read?
**A.** The normalized cell count was 97.8%.

**Q.** With `COc1ccc(-c2nnc(SCc3ccccc3F)o2)cc1` as the compound, how does the normalized cell count read?
**A.** Its normalized cell count is 61.1%.

**Q.** With `O=C(CNc1ccc(Oc2ccccc2)cc1)N1CCOCC1` as the compound, how does the normalized cell count read?
**A.** Its normalized cell count is 111%.

**Q.** For `CCc1cc2c(=O)[nH]c(N3CCOCC3)nc2s1`, which normalized cell count is on record?
**A.** The normalized cell count was 123%.

**Q.** For `Cc1ccc(S(=O)(=O)N2C(=O)C(C)SC2=Nc2ccccc2)cc1` (centres undefined), which normalized cell count is on record?
**A.** Its normalized cell count is 95.3%.

**Q.** With `CSc1nc(-c2ccc(Cl)cc2Cl)[nH]c(=O)c1C#N` as the compound, how does the normalized cell count read?
**A.** The normalized cell count was 74.6%.

**Q.** With `Cc1cccc(C)c1NC(=O)COC(=O)COc1ccc2c(C)cc(=O)oc2c1` as the compound, how does the normalized cell count read?
**A.** The normalized cell count was 123%.

**Q.** For `COc1ccc2cc(C#N)c(NC(C)C)nc2c1`, which normalized cell count is on record?
**A.** The normalized cell count was 136%.

**Q.** Which normalized cell count does the source give for `NC(=O)CSC1=Nc2ccccc2C2=NC(c3ccccc3)C(=O)N12` (centres undefined) here?
**A.** Its normalized cell count is 127%.

**Q.** With `CCN(CC)Cc1c(O)ccc2c([N+](=O)[O-])c(C)n(-c3ccc(OC)cc3)c12` as the compound, how does the normalized cell count read?
**A.** Its normalized cell count is 127%.

**Q.** Which normalized cell count does the source give for `O=C(CN1CCN(CC(=O)Nc2ccccc2C(F)(F)F)CC1)Nc1ccccc1F` here?
**A.** Its normalized cell count is 117%.

**Q.** For `O=c1oc2ccccc2c(Nc2ccc3ccccc3c2)c1[N+](=O)[O-]`, which normalized cell count is on record?
**A.** The normalized cell count was 90.4%.

**Q.** For `OC1C2(Cc3ccccc3)CN3CCN(C2)CC1(Cc1ccccc1)C3` (centres undefined), which normalized cell count is on record?
**A.** The normalized cell count was 56.3%.

**Q.** Which normalized cell count does the source give for `O=C(Cn1c(=O)oc2ccccc21)c1ccccc1` here?
**A.** Its normalized cell count is 52.5%.

**Q.** With `COC(=O)c1ccc(C2C(C#N)=C(N)Oc3cc(C)n(C)c(=O)c32)cc1` (centres undefined) as the compound, how does the normalized cell count read?
**A.** The normalized cell count was 44.4%.

**Q.** For `O=C(NC(Cc1c[nH]c2ccccc12)C(=O)O)/C(=C/c1ccc2c(c1)OCO2)NC(=O)c1ccccc1` (centres undefined), which normalized cell count is on record?
**A.** The normalized cell count was 55.8%.

Source: PubChem BioAssay AID1273 (Columbia University Molecular Screening Center, 2008)
